These results are taken from PMC8440562, “MAD2L2 dimerization and TRIP13 control shieldin activity in DNA repair” (Nature Communications, 2021).

Assay [1] deals with GST-tagged MAD2L2 in complex with full-length SHLD3. The experiment in a line: SEC; Superdex-200 in buffer C (25 mM Tris pH 8, 0.3 M NaCl, 10% glycerol, 0.5 mM TCEP, 10 mM MgCl2) + 0.1 mM ATP; proteins incubated 2 h on ice with 2 mM ATP before the run; equimolar in Fig. 3f; both purified. For orientation: Size exclusion chromatography separates by hydrodynamic size, large species first.

The target is the same in assay [2]. Kind of assay: pull-down; purified proteins mixed at 6 uM in 25 mM Tris pH 8, 0.3 M NaCl, 10% glycerol, 10 mM MgCl2, 0.5 mM TCEP, 0.01% Triton-X, 3 mM ATP; glutathione agarose or amylose beads; MAD2L2 in complex with full-length SHLD3; Coomassie SDS-PAGE; both purified.
For assay [3], the target named is MAD2L2-SHLD3-SHLD2^1-95 complex (human). The experiment in a line: SEC; Superdex-200 in buffer C (25 mM Tris pH 8, 0.3 M NaCl, 10% glycerol, 0.5 mM TCEP, 10 mM MgCl2) + 0.1 mM ATP; proteins incubated 2 h on ice with 2 mM ATP before the run; equimolar in Fig. 3f; both purified.

These are yes or no findings as the source states them, for the method shown. Binding can be weak; no strength is given. For part of these data: Sequences can lack the tags named with a protein.

B1: His6-EGFP-TRIP13^E253Q (enzyme, human, UniProt Q15645 1-432, looked up)
chain: MDEAVGDLKQALPCVAESPTVHVEVHQRGSSTAKKEDINLSVRKLLNRHNIVFGDYTWTEFDEPFLTRNVQSVSIIDTELKVKDSQPIDLSACTVALHIFQLNEDGPSSENLEEETENIIAANHWVLPAAEFHGLWDSLVYDVEVKSHLLDYVMTTLLFSDKNVNSNLITWNRVVLLHGPPGTGKTSLCKALAQKLTIRLSSRYRYGQLIEINSHSLFSKWFSESGKLVTKMFQKIQDLIDDKDALVFVLIDQVESLTAARNACRAGTEPSDAIRVVNAVLTQIDQIKRHSNVVILTTSNITEKIDVAFVDRADIKQYIGPPSAAAIFKIYLSCLEELMKCQIIYPRQQLLTLRELEMIGFIENNVSKLSLLLNDISRKSEGLSGRVLRKLPFLAHALYVQAPTVTIEGFLQALSLAVDKQFEERKKLAAYI
notes: TRIP13, human, with E253Q; printed mass of GFP-TRIP13 75.5 kDa; source: insect cells (Hi5, baculovirus, biGBac), purified
For B1, the binding result in assay [1] and in assay [2] was “binds” each time.

B2: TRIP13^E253Q (48.5 kDa form, Fig. 3f) (enzyme, human, UniProt Q15645 1-432, looked up)
chain: MDEAVGDLKQALPCVAESPTVHVEVHQRGSSTAKKEDINLSVRKLLNRHNIVFGDYTWTEFDEPFLTRNVQSVSIIDTELKVKDSQPIDLSACTVALHIFQLNEDGPSSENLEEETENIIAANHWVLPAAEFHGLWDSLVYDVEVKSHLLDYVMTTLLFSDKNVNSNLITWNRVVLLHGPPGTGKTSLCKALAQKLTIRLSSRYRYGQLIEINSHSLFSKWFSESGKLVTKMFQKIQDLIDDKDALVFVLIDQVESLTAARNACRAGTEPSDAIRVVNAVLTQIDQIKRHSNVVILTTSNITEKIDVAFVDRADIKQYIGPPSAAAIFKIYLSCLEELMKCQIIYPRQQLLTLRELEMIGFIENNVSKLSLLLNDISRKSEGLSGRVLRKLPFLAHALYVQAPTVTIEGFLQALSLAVDKQFEERKKLAAYI
notes: TRIP13, human, with E253Q; printed mass 48.5 kDa (291 kDa for hexamer); The printed mass fits TRIP13 without the EGFP fusion; source: insect cells (Hi5, baculovirus, biGBac), purified
As to B2, the binding result in assay [3] is “binds”.
